This is one part of the list. Results with a measured potency or affinity are listed apart.

For this experiment, the system named is Pseudomonas aeruginosa. To be noted: Concentration 20 uM; ASSAY_TEST Inhibition of Bacterial Growth; detection method Absorption (OD600); MEDIA CAMHB; plate type 384well; NBS; CORNING #3640; time 18 hr.
Regarding `CS(=O)(=O)c1ccc(-c2cc(Br)sc2-c2ccc(F)cc2)cc1` [DUP-697], the Inhibition (usually the drop in the measured response relative to a control, in per cent) is 4.8%.

Consider `CCC(=O)O[C@]1(C(=O)SCF)[C@H](C)C[C@H]2[C@@H]3C[C@H](F)C4=CC(=O)C=C[C@]4(C)[C@@]3(F)[C@@H](O)C[C@@]21C` [FLUTICASONE PROPIONATE], for which the Inhibition is 5.17%. For `Cl.O=C(c1ccc(OCCN2CCCCC2)cc1)c1c(-c2ccc(O)cc2)sc2cc(O)ccc12` [RALOXIFENE HYDROCHLORIDE] the value was 4.22%.

In the case of `C[C@]12C=CC(=O)C=C1CC[C@@H]1[C@@H]2[C@@H](O)C[C@@]2(C)[C@H]1CC[C@]2(O)C(=O)COC(=O)CCC(=O)[O-].[Na+]` [PREDNISOLONE SODIUM SUCCINATE], the Inhibition was found to be 4.81%.

Turning to `CC[C@]1(O)C[C@@H]2CN(CCc3c([nH]c4ccccc34)[C@@](C(=O)OC)(c3cc4c(cc3OC)N(C)[C@H]3[C@@](O)(C(N)=O)[C@H](O)[C@]5(CC)C=CCN6CC[C@]43[C@@H]65)C2)C1.O=S(=O)(O)O` [VINDESINE SULFATE], the Inhibition is given as 5.43%. For `COc1ccccc1N1CCN(CCCNc2cc(=O)n(C)c(=O)n2C)CC1.Cl` [URAPIDIL HYDROCHLORIDE] the value was 19.16%; for `CC#C[C@]1(O)CC[C@H]2[C@@H]3CCC4=CC(=O)CCC4=C3[C@@H](c3ccc(N(C)C)cc3)C[C@@]21C` [MIFEPRISTONE], 4.18%; for `CC(=O)OCC(=O)[C@@]1(O)CC[C@H]2[C@@H]3CCC4=CC(=O)CC[C@]4(C)[C@H]3[C@@H](O)C[C@@]21C` [HYDROCORTISONE ACETATE], 18.68%. With `Nc1ccc2cn[nH]c2c1` the figure was 18.59%; with `Cl.O[C@@H](c1cc(C(F)(F)F)nc2c(C(F)(F)F)cccc12)[C@H]1CCCCN1`, 14.68%. For `CCOc1cc(CC(=O)N[C@@H](CC(C)C)c2ccccc2N2CCCCC2)ccc1C(=O)O` [REPAGLINIDE] the value was 6.11%. As for `Cc1occc(=O)c1O` [MALTOL], the Inhibition is 10.89%. For `CN(CCO)CC(O)Cn1cnc2c1c(=O)n(C)c(=O)n2C.O=C(O)c1cccnc1` (stereo unspecified) [XANTHINOL NIACINATE] the value was 42.72%. For the compound `CC(C(=O)O)c1cccc(C(=O)c2ccccc2)c1` (stereo unspecified) [KETOPROFEN], the Inhibition was 8.02%. For `COc1cc(/C=C/c2ccc(O)cc2)cc(OC)c1` [PTEROSTILBENE] the value was 31.46%; for `CC(C)NCC(O)COc1ccc(CCOCC2CC2)cc1.Cl` (stereo unspecified) [BETAXOLOL HYDROCHLORIDE], 19.43%. For `COc1ccc2c(c1)c(CC(=O)O)c(C)n2C(=O)c1ccc(Cl)cc1.O` the value was 6.24%; for `CC12CC3CC(C)(C1)CC(N)(C3)C2.Cl` [MEMANTINE HYDROCHLORIDE], 14.28%; for `COc1cc2c(cc1OC)C(=O)C(CC1CCN(Cc3ccccc3)CC1)C2.Cl` (stereo unspecified) [DONEPEZIL HYDROCHLORIDE], 10.6%. For `Nc1nc(Cl)nc2c1ncn2[C@H]1C[C@H](O)[C@@H](CO)O1` [CLADRIBINE] the value was 16.28%; for `CC(C)(C)NC(=O)[C@@H]1C[C@@H]2CCCC[C@@H]2CN1C[C@@H](O)[C@H](Cc1ccccc1)NC(=O)[C@H](CC(N)=O)NC(=O)c1ccc2ccccc2n1.CS(=O)(=O)O` [SAQUINAVIR MESYLATE], 16.83%.

Consider `CCCc1cc(=O)[nH]c(=S)[nH]1` [PROPYLTHIOURACIL], for which the Inhibition came to 12.96%. For `Cc1onc(-c2ccccc2)c1-c1ccc(S(N)(=O)=O)cc1` [VALDECOXIB] the value was 8.96%. For `Cc1sc(N)c(C(=O)c2cccc(C(F)(F)F)c2)c1C` the value was 7.15%; for `CN(C)CCCSc1ccccc1NC(=O)/C=C/c1ccccc1.Cl.O`, 20.84%; for `CC(C)c1ccc2oc3nc(N)c(C(=O)O)cc3c(=O)c2c1` [AMLEXANOX], 21.06%. With `COC(=O)Nc1nc2cc(C(=O)c3ccccc3)ccc2[nH]1` [MEBENDAZOLE] the figure was 13.95%; with `CCC(=O)O[C@]1(C(=O)CCl)[C@@H](C)C[C@H]2[C@@H]3CCC4=CC(=O)C=C[C@]4(C)[C@@]3(F)[C@@H](O)C[C@@]21C` [CLOBETASOL PROPIONATE], 1.19%. As to `N[C@@H]1CONC1=O` [CYCLOSERINE], the Inhibition was found to be 60.23%. With `O=C(O)COCCN1CCN(C(c2ccccc2)c2ccc(Cl)cc2)CC1` (stereo unspecified) [CETIRIZINE] the figure was 16.42%; with `CC(=O)OCC(=O)C12OC3(CCCC3)OC1CC1C3CCC4=CC(=O)C=CC4(C)C3(F)C(O)CC12C` (stereo unspecified), 17.26%.

Regarding `CC(CCc1ccccc1)NCC(O)c1ccc(O)c(C(N)=O)c1.Cl` (stereo unspecified) [LABETALOL HYDROCHLORIDE], the Inhibition is 15.98%. With `COc1cc2nc(N(C)CCCNC(=O)C3CCCO3)nc(N)c2cc1OC` (stereo unspecified) [ALFUZOSIN] the figure was 13.27%. With `CC1=C(/C=C/C(C)=C/C=C/C(C)=C/C(=O)O)C(C)(C)CCC1` [TRETINOIN] the figure was 21.29%. With `CCOC(=O)[C@@H](CCc1ccccc1)N[C@@H](C)C(=O)N1CCC[C@H]1C(=O)O.O=C(O)/C=C\C(=O)O` the figure was 1.23%; with `CN1CCN(C2=Nc3ccccc3Oc3ccc(Cl)cc32)CC1.O=C(O)CCC(=O)O` [LOXAPINE SUCCINATE], 4.74%; with `CCCN(CCC)S(=O)(=O)c1ccc(C(=O)O)cc1` [PROBENECID], 19.93%. On to `O=C(O)c1cc2ccccc2c(Cc2c(O)c(C(=O)O)cc3ccccc23)c1O.OCCOCCN1CCN(C(c2ccccc2)c2ccc(Cl)cc2)CC1` [HYDROXYZINE PAMOATE], for which the Inhibition was determined as 23%. For `O=C1CN(/N=C/c2ccc(-c3ccc([N+](=O)[O-])cc3)o2)C(=O)[N-]1.[Na+]` [DANTROLENE SODIUM] the value was -2.63%; for `O=c1cnn([C@@H]2O[C@H](CO)[C@@H](O)[C@H]2O)c(=O)[nH]1` [6-AZAURIDINE], 9.22%; for `N[C@@H](Cc1cc(I)c(Oc2cc(I)c(O)c(I)c2)c(I)c1)C(=O)O` [LEVOTHYROXINE], -9.42%.

On to `CC(=O)OCC(=O)[C@@]1(O)CC[C@H]2[C@@H]3CCC4=CC(=O)CC[C@]4(C)[C@H]3C(=O)C[C@@]21C` [CORTISONE ACETATE], for which the Inhibition stood at 12.77%. Consider `CC1CNc2c(cccc2S(=O)(=O)N[C@@H](CCCNC(=N)N)C(=O)N2CC[C@@H](C)C[C@@H]2C(=O)O)C1` (stereo partly specified) [ARGATROBAN], for which the Inhibition is 9.28%. As for `OCc1cccnc1` [NICOTINYL ALCOHOL], the Inhibition is 13.13%. For `Cl.Clc1ccc2nsnc2c1NC1=NCCN1` [TIZANIDINE HYDROCHLORIDE] the value was 18.39%; for `Cl.Cn1c(NCCN(CCO)CCCc2ccc([N+](=O)[O-])cc2)cc(=O)n(C)c1=O`, 9.57%. For `C[C@]12C=CC(=O)C=C1CC[C@@H]1[C@@H]2[C@@H](O)C[C@@]2(C)[C@H]1CC[C@]2(O)C(=O)CO` [PREDNISOLONE] the value was 12.94%. `CCC(CO)NCCNC(CC)CO` (stereo unspecified): the Inhibition is 12.6%. For `Cc1c(C(=O)NN2CCCCC2)nn(-c2ccc(Cl)cc2Cl)c1-c1ccc(I)cc1` the value was 26.55%; for `O=C(O)CCNC(=O)c1ccc(N=Nc2ccc(O)c(C(=O)O)c2)cc1`, 8.38%; for `CC(C)(C#N)c1cc(Cn2cncn2)cc(C(C)(C)C#N)c1` [ANASTROZOLE], 1.01%. For `Nc1ccn([C@H]2CC[C@@H](CO)O2)c(=O)n1` [ZALCITABINE] the value was 1.57%. On to `CCOC(=O)C1(CCCCCCOc2ccc(Cl)cc2)CO1` (stereo not drawn) [rac-ETOMOXIR], for which the Inhibition was -3.66%. Regarding `O=C(C1CCCCC1)N1CC(=O)N2CCc3ccccc3C2C1` (stereo unspecified) [PRAZIQUANTEL], the Inhibition is reported as 14.4%. With `CN(C)CCOC(c1ccccc1)c1ccccc1.Cl` [DIPHENHYDRAMINE HYDROCHLORIDE], the Inhibition was 6.73%. For `COc1cc(C[C@@H](CO)[C@H](CO)Cc2ccc(O)c(OC)c2)ccc1O` [(+)-SECOISOLARICIRESINOL], the Inhibition stood at 4.3%. With `Cc1cccc(C)c1NC(=O)C(C)N` (stereo unspecified) [TOCAINIDE] the figure was 15.76%; with `Cl.c1ccc(CC2=NCCN2)cc1` [TOLAZOLINE HYDROCHLORIDE], 13.23%.

`CN1CCN(C2=Nc3cc(F)ccc3Cc3ccccc32)CC1` [FLUPERLAPINE]: the Inhibition was found to be 16.87%. With `CC(C[N+](C)(C)C)OC(N)=O.[Cl-]` (stereo unspecified) [BETHANECHOL CHLORIDE] the figure was 6.75%. Turning to `Cl.O=C(NCC1CCCCN1)c1cc(OCC(F)(F)F)ccc1OCC(F)(F)F` (stereo unspecified), the Inhibition came out at 10.48%. For `COc1ccc(C(=O)NCc2ccc(OCCN(C)C)cc2)cc1OC.Cl` the value was 10.45%; for `Oc1ccc(/C=C/c2cc(O)cc(O)c2)cc1` [RESVERATROL], 10.36%; for `COc1ccc(/C=C/C(=O)Nc2ccccc2C(=O)O)cc1OC`, 3.06%.

On to `CNCC[C@@H](Oc1ccccc1C)c1ccccc1.Cl` [ATOMOXETINE HYDROCHLORIDE], for which the Inhibition is given as 12.55%. With `Nc1ncnc2c1ncn2[C@@H]1O[C@H](CO)C[C@@H]1O.O` the figure was 10.96%; with `Cc1cccc(Nc2ccncc2S(=O)(=O)NC(=O)NC(C)C)c1` [TORSEMIDE], 3.65%.

With `NC(=O)N1c2ccccc2CC(=O)c2ccccc21` [OXCARBAZEPINE], the Inhibition was 18.9%.

In the case of `Cc1ccccc1C(OCCN(C)C)c1ccccc1.Cl` (stereo unspecified) [ORPHENADRINE HYDROCHLORIDE], the Inhibition is 12.56%. For the compound `NS(=O)(=O)Cc1noc2ccccc12` [ZONISAMIDE], the Inhibition amounted to 11.37%. With `NCC(=O)CCC(=O)O` [AMINOLEVULINIC ACID] the figure was 12.16%.

These data come from ChEMBL document CHEMBL4513141, “CO-ADD screening of NIH (USA) - Clinical Collection” (2021).
